PubChem BioAssay AID1347423 (Functional Genomics Laboratory (NCATS/FGL), 2020)
The campaign covered roughly 52,000 sequences. About 210 (0.4%) were called active.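 The calls were made as follows: active = gene whose silencing raises cell survival under the drug, median off-target-corrected z-score across its silencing RNAs 2 or more; inactive = the rest.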 This is one part of the list.

Assay: Resistance to Poly (ADP-Ribose) Polymerase inhibitor: Gene Identification via Genome-wide siRNA Screen
Conditions: mouse BRCA2 R2336H ES cells, olaparib, CellTiter-Glo viability; active compounds read high
Summary of the method: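 Mouse BRCA2 R2336H ES cells were reverse-transfected with siRNA (20 nM final), treated at 48 h with 500 nM olaparib, and read by CellTiter-Glo after 72 h. Scores: MAD-based z per siRNA, median per gene, seed off-target correction.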

Row | Sequence | z-score
1 | GGACAGGUACAGCAUCAACTT against Siat9 | inactive: 1.14
2 | ACAAAGAAGCGAUUUCUAUTT against Wtip | inactive: -0.669
3 | GGACUGUGCAGUUAUUGUCTT against Psma6 | inactive: -3.39
4 | GGCCUUGAUAUCAACAAGATT against Pkia | inactive: 1.05
5 | GCGAAAAGACCAAUAAUGGTT against Ebf1 | inactive: 0.479
6 | GCAAGAACCUGGUGCGAAATT against Lrrc4b | inactive: -0.297
7 | UCACCAUCUUGAAGAUUCGTT against Olfr486 | inactive: 1.16
8 | GCAAGAGUCUGCUACGACATT against Opn1sw | inactive: 0.0796
9 | GGAAGAAAAACAGCAGAUCTT against Dncic1 | inactive: -1.14
10 | CCAGAACUGUGAGUGGAUUTT against Nrp2 | inactive: -0.457
11 | CUUUCCUUCACUGAUGUCATT against Olfr666 | inactive: -2.37
12 | GCUGAAAACACACCUAGCATT against 4930429M06Rik | inactive: 3.56
13 | GCCAAGAUCCCACCAGUUATT against C230078M08Rik | inactive: -0.799
14 | GGAAGAAUAUUGGCCCUGUTT against 2810004A10Rik | inactive: -1.2
15 | GGACCUGAACGAUCUCGUUTT against MGC25972 | inactive: 0.132
16 | GCUGACCGGCAUUUACCAUTT against Mcm2 | inactive: 0.0737
17 | GCGAGAGCUUCUUAACUGUTT against Ssh2 | inactive: 0.487
18 | GCACUACAUUGUGGCUGUCTT against Itpr3 | inactive: -0.713
19 | GGGCAUAUGACUGAAACACTT against V1ra2 | inactive: -2.18
20 | GGACAGCAAGACCAACCUATT against Elavl2 | inactive: -1.42
21 | GGACAAAGAAAACAGCUGUTT against A630024B12Rik | inactive: 0.945
22 | GCCGAUCAAGACAACUUCATT against 1700094C09Rik | inactive: 0.143
23 | GUCACAAGCUGUCCAACAATT against Ndufa7 | inactive: -1.29
24 | GCUAAGAAGAGGAUUCCAATT against Spag1 | inactive: -1.47
25 | GCAAUACUUAUCCAUUGCGTT against Msx3 | inactive: -0.165
26 | GGAGUGAUUAACCUAACUCTT against Crip3 | active: -0.183
27 | CGUAUAAUAACUCCUUAUCTT against Hoxa1 | inactive: 0.0437

Row | Sequence | z-score
28 | GGCAAUCCACCAAGUACAATT against Ptpn8 | inactive: -0.909
29 | GGAGCUACUGUACCUUGCUTT against 5830426I05Rik | inactive: -2.62
30 | GCUUACAAUGAAUGAUGAUTT against Psme4 | inactive: 0.345
31 | GGCAUUUGCCAAGAAAAAUTT against BC013667 | inactive: 0.0672
32 | GGGUAUGUCGGAGACCUUUTT against 1600025D17Rik | inactive: -0.612
33 | GCAUGUUGCAUCACAGGGATT against Zfp106 | inactive: 0.12
34 | GCGGUGCUUAGAGCAACUGTT against Mxd3 | inactive: 0.527
35 | GGUCUAUUUGACCUCUUAATT against Bcl2l13 | inactive: -1.84
36 | GGAAAUCCGCUUCACCAUCTT against Efnb1 | inactive: 2.04
37 | CGACAAACCCAAGAUCACGTT against Viaat | inactive: 1.57
38 | CGACCUCAAAGAUGUGACGTT against 5-Sep | inactive: -0.94
39 | GGAAAAGCAUAAAGAAAAGTT against Ralbp1 | inactive: 0.488
40 | GAAAAAAUGCCAGCUGUGGTT against Sec61b | inactive: -0.153
41 | GCAAGGUGUAGAUUUUACATT against D0H4S114 | inactive: 0.419
42 | GCUUGAUGGAAUCUUCUAGTT against 1700030K09Rik | inactive: 0.0701
43 | CCAGGACCUUAUCAGGUUUTT against Idh2 | inactive: -0.58
44 | GGGCAUGGACAAAAAGAAGTT against Prpf3 | inactive: 0.249
45 | GGAAGCUUAAUUGUGCACATT against Zfp637 | inactive: -0.264
46 | GCGAUUCUGUUGUUAGCUUTT against Rln1 | inactive: 0.621
47 | GGUGUUAGCCUAGAAAAACTT against Fbxo43 | inactive: -0.797
48 | GGAUUUCUGUGUGUCCACUTT against 9630020C08Rik | inactive: 1.51
49 | GGAGUACAGCAUCUCAGCATT against Cacng1 | inactive: -1.44
50 | CCAUGGGAUAUGAUUUACATT against Phf11 | inactive: -0.621
51 | CCAUAAGGUAACCUGUACATT against Serpinb1c | inactive: -0.493
52 | CCAUCUCAAACACCAAUCGTT against Timd4 | inactive: -1.42
53 | GCUCAUGUUGCAUGUUAAGTT against Idh3g | inactive: 0.648
54 | GGUCUUAAACAGUGUGACATT against AW049900 | inactive: -0.37

Reformatted as tab-separated lines: part of the list above
Row	Sequence	z-score
39	GGAAAAGCAUAAAGAAAAGTT against Ralbp1	inactive: 0.488
48	GGAUUUCUGUGUGUCCACUTT against 9630020C08Rik	inactive: 1.51

The results go on:

Row | Sequence | z-score
55 | CGAGUAUCCCGUCAAGUUGTT against 6820408C15Rik | inactive: 0.935
56 | CCCUUAGAGCUCUUAAAGATT against Mcart1 | inactive: 0.39
57 | GGAAAGUGGUUUUGUCCACTT against Ing5 | inactive: 1.74
58 | GACCUACCAGAUGAAGGUCTT against V1rc25 | inactive: 0.288
59 | CCUCUCUUUAACAGGUCACTT against 1700034H15Rik | inactive: 0.382
60 | GGGUCUAUCAGCUACAUCATT against Acsl6 | inactive: 2.35
61 | CCACAGGGAUAGAUACUCCTT against Olfr566 | inactive: -0.184
62 | GCAAAGAGGCCUAAUUGAATT against B2m | inactive: 0.968
63 | CGUGAAGAUUGACGUGUUUTT against Pcyox1 | inactive: 0.98
64 | CGAGAUCUUUCCUAGUUUUTT against Mad | inactive: 0.982
65 | CGCCGGAAGUUCUACCACUTT against BC010787 | inactive: -2.4
66 | GUGGUCUUUAUCGGCAUGATT against Slc35c1 | inactive: -0.605
67 | GGAGCUCAAGAACAGGAUGTT against Tna | inactive: 1.03
68 | GCCUCUAACAAAACUAGGCTT against 1100001I22Rik | inactive: -3.05
69 | GCACAGUUCCAACUUCGUUTT against 4932418K24Rik | inactive: 1.49
70 | GGAAGUCCAAGAGAGGUUGTT against Dom3z | inactive: -0.826
71 | GGUGUAGAAAUAAAGUGAGTT against Mbl2 | inactive: 0.272
72 | GGGAUGCCAUCGUGUUUCUTT against Ccl17 | inactive: -0.78
73 | GGCUUUUUGGCUCAAAAAUTT against Spg21 | inactive: 0.00256
74 | CGAGAAAAACAACUCCUUUTT against C330039G02Rik | inactive: 0.649
75 | GCAUAAUUUCAGUGGCAAATT against Fbxo12 | inactive: -0.254
76 | GGACAGUUCUAAAAUUCCCTT against Olfr780 | inactive: -0.324
77 | GGUCUUUCUGGCAAUUCUCTT against Zfp31 | inactive: -1.07
78 | GGUUGAAGCAGAAGAUAAUTT against 2210409M21Rik | inactive: 0.872
79 | GGCCUUAACCUGAUAGUUGTT against Nt5m | inactive: 1.34
80 | CGUAAAUUCACCAAGGAGCTT against Slc19a1 | inactive: 0.688
81 | CGUUCUUCAUGAAACAUUCTT against Ryr3 | inactive: -1.49

Row | Sequence | z-score
82 | GCACUCGAAUUUCUUUACUTT against Slc23a2 | inactive: 0.45
83 | CGGUUCCAACCUUGAAAAATT against H1fx | inactive: 0.06
84 | CCUCUACUUAAUGUGCAACTT against Npc1l1 | inactive: 1.51
85 | CCACUCAAGCGGUAAGGAUTT against Slc22a1 | inactive: -0.343
86 | GGAGAGAAGUGACAACGAATT against Adamts8 | inactive: -0.13
87 | GGUUCCGUUUAAUGAAGUGTT against Fxr1h | inactive: 0.913
88 | GGGUCAGAAAAGUCUGUCATT against Vangl1 | inactive: -1.46
89 | CCUGACCGUUAACAGCUGUTT against Aamp | inactive: -0.0169
90 | CCGGAGUGACCAUAUUCGUTT against Fgr | inactive: 0.258
91 | GGCGAUGUGACCAUUACAATT against Cct4 | inactive: -2.9
92 | GCUGCUUUAGCUUAGUUUUTT against D17H6S56E-3 | inactive: 0.943
93 | GCAUCUAUAAUUCUAUACCTT against BC023105 | inactive: 0.491
94 | GGACCUACGACAUUUCCUCTT against Baiap1 | inactive: 0.46
95 | GCACAGGUUCAAGUGGAACTT against Prnd | inactive: 0.93
96 | GGAACAAAGACGUAAAAAATT against Olfr1101 | inactive: 0.272
97 | GCCAUGAGGAGAUUCAAGGTT against Klra5 | inactive: 0.359
98 | GGUCGUGAUAAACAUAUCATT against 2410030J07Rik | inactive: -0.557
99 | GGCUUUUUUGUCUUAGGCUTT against A530013C23Rik | inactive: 0.741
100 | GGUAUUUAAGUGAUACAUCTT against Ddost | inactive: 0.616
101 | GGAACUUUAUGUCUCCUACTT against 5730427C23Rik | inactive: 0.596
102 | CCAAAUCUGUUGAUGAUUCTT against Setmar | inactive: 1.04
103 | GGUUACAAUCCAUGAGAAATT against Anapc1 | inactive: -1.13
104 | GCACCAUUGACUCAGUUAATT against Semcap2 | inactive: 0.129
105 | GCUACCAACCAUUAAGAUATT against Lipl2 | inactive: 1.06

Nos. 91 through 97, reprinted for reference:
Row | Sequence | z-score
91 | GGCGAUGUGACCAUUACAATT against Cct4 | inactive: -2.9
92 | GCUGCUUUAGCUUAGUUUUTT against D17H6S56E-3 | inactive: 0.943
93 | GCAUCUAUAAUUCUAUACCTT against BC023105 | inactive: 0.491
94 | GGACCUACGACAUUUCCUCTT against Baiap1 | inactive: 0.46
95 | GCACAGGUUCAAGUGGAACTT against Prnd | inactive: 0.93
96 | GGAACAAAGACGUAAAAAATT against Olfr1101 | inactive: 0.272
97 | GCCAUGAGGAGAUUCAAGGTT against Klra5 | inactive: 0.359
